Reference: PMC12817929
No constants are given. Whether binding was seen depends on the method and setting. Binding seen in cells or lysates may run through a third protein. Some results given as binding are weak or reduced against the parent protein; the word gives no strength.

Protein sequences, listed by entry. Tags and fused reporters are not part of them. Residues count along the entry.
UniProt P38646, residues 47-679: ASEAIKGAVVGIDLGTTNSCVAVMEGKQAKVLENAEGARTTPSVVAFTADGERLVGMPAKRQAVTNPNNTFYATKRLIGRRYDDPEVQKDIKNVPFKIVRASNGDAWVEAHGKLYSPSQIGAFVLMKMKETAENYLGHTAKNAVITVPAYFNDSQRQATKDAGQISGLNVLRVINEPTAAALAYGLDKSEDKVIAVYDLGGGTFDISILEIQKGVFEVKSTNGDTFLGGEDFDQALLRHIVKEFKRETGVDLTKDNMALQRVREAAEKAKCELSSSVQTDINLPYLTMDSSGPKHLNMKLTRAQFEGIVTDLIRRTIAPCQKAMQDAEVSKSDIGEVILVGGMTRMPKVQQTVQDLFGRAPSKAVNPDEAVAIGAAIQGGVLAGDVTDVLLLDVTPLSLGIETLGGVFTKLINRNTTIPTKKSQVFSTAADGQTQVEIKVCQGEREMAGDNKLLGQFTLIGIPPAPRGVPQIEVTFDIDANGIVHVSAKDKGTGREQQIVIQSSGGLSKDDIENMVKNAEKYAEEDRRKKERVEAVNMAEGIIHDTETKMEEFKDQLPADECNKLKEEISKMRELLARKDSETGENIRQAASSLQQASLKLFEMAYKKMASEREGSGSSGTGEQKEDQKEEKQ
UniProt P11142: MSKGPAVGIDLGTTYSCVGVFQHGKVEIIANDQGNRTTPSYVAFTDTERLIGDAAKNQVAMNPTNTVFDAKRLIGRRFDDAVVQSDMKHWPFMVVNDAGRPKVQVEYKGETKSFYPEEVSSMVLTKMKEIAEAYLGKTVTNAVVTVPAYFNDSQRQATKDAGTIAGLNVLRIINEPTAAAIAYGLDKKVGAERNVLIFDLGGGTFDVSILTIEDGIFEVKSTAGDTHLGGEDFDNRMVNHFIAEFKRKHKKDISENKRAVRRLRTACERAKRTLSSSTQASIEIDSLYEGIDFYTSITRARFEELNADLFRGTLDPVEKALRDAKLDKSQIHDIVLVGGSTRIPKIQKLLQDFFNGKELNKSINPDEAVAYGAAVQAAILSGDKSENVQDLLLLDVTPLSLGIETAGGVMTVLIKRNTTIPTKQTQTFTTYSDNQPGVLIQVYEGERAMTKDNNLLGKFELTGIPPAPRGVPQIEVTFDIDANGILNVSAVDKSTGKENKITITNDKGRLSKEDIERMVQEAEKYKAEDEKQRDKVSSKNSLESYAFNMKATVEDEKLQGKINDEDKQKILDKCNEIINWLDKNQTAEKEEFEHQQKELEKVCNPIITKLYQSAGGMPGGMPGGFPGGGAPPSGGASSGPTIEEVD

Target: HA-tagged GRP75 (GRP75-HA) (not stated (human or porcine cDNA cloned)) (UniProt P38646)
Assay: co-IP; HEK-293T co-transfected with GRP75-HA and HSC70-MYC for 48 h, NP-40 lysis, IP with HA-specific antibody, blot with MYC antibody

“MYC-tagged HSC70 (HSC70-MYC) in HEK-293T cells (from UniProt P11142 1-646)” was tested, and the binding was “binds”.
